# Test system: RBCs
smiles,measurement,setting,value
"Cc1cc(-c2ccc(N(C)C)cc2)cc(-c2ccc(N(C)C)cc2)[s+]1.[I-] [Compound 2, 2′,4′-bis(4-N,N-dimethylaminophenyl) 6′-methylthiopyrilium iodide]",glucose utilization rate,n=4,6.20 ± 0.97 mM/day
same,lactose production,n=4,26.7 ± 1.9 mM
same,extracellular pH,n=10,6.48±0.07

# From patent US20060269907A1, “Decontamination of biological fluids using diphenylpyrilium compounds” (priority 2003, published 2006)
